Measurements: the supplement of paper PMC12823440, “Inhibitors supercharge kinase turnover through native proteolytic circuits” (Nature, 2025)
This is one part of the list. The calls rarely recur for the same compound in another form.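 Kinases, fused to nanoluciferase, were expressed in K562 cells; luminescence was measured every 4 h from 2 to 18 h as percent of control (DMSO = 100%, positive control = 0%). A time point is decreased if signal falls significantly (2 sigma). Hits were called by the authors by a rule that is not shown; the count of time points alone does not decide it.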

The chains behind the UniProt entries cited, without tags or fusion partners. Where a name states a change or a piece, a line headed by the entry shows the natural chain unless it says otherwise.
UniProt P21802, whole entry, looked up: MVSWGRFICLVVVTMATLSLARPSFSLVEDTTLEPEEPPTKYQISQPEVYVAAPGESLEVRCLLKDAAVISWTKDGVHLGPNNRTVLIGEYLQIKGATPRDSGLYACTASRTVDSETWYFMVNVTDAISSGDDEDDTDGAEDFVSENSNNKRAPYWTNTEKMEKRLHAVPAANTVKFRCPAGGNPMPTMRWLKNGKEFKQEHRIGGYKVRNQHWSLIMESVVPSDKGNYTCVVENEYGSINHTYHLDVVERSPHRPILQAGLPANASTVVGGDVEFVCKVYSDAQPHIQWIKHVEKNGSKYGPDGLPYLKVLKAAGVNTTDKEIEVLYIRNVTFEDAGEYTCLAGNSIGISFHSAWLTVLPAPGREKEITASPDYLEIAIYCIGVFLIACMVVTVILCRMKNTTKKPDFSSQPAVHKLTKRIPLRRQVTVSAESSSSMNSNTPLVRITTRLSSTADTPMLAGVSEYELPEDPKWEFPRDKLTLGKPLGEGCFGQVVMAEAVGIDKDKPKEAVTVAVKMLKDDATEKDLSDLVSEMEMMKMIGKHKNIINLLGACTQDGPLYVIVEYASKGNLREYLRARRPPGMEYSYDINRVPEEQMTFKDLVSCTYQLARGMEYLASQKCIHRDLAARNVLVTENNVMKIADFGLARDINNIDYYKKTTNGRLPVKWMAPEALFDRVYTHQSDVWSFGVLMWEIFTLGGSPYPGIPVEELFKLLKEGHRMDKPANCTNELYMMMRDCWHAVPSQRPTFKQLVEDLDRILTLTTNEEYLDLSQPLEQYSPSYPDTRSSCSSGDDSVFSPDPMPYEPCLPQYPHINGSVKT
UniProt P06241, whole entry, looked up: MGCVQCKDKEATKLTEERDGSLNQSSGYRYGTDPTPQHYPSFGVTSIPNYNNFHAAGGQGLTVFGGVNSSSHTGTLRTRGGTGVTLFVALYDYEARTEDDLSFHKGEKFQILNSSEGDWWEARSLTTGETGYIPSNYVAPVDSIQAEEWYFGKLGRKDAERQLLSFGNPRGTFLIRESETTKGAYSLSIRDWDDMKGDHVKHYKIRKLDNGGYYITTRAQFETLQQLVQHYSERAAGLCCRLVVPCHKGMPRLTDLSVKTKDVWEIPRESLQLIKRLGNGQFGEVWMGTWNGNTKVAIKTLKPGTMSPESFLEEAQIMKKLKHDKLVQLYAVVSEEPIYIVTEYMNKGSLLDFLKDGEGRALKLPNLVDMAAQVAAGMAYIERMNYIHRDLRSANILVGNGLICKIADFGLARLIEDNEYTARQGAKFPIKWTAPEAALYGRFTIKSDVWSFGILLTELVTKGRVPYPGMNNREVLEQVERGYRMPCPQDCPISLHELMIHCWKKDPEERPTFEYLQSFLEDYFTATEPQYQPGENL
UniProt P49840: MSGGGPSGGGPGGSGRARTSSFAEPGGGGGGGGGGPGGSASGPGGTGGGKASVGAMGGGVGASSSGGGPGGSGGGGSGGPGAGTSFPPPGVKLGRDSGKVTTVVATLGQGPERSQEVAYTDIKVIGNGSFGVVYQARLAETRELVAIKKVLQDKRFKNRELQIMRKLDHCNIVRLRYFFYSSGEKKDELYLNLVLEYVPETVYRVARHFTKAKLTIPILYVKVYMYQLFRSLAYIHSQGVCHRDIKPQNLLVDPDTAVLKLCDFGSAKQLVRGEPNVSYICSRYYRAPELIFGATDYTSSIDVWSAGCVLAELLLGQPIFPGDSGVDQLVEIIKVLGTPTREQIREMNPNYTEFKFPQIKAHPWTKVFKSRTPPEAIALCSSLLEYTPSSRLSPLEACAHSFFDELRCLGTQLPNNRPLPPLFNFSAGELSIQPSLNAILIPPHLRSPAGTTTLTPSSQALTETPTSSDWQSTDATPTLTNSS
UniProt P14616: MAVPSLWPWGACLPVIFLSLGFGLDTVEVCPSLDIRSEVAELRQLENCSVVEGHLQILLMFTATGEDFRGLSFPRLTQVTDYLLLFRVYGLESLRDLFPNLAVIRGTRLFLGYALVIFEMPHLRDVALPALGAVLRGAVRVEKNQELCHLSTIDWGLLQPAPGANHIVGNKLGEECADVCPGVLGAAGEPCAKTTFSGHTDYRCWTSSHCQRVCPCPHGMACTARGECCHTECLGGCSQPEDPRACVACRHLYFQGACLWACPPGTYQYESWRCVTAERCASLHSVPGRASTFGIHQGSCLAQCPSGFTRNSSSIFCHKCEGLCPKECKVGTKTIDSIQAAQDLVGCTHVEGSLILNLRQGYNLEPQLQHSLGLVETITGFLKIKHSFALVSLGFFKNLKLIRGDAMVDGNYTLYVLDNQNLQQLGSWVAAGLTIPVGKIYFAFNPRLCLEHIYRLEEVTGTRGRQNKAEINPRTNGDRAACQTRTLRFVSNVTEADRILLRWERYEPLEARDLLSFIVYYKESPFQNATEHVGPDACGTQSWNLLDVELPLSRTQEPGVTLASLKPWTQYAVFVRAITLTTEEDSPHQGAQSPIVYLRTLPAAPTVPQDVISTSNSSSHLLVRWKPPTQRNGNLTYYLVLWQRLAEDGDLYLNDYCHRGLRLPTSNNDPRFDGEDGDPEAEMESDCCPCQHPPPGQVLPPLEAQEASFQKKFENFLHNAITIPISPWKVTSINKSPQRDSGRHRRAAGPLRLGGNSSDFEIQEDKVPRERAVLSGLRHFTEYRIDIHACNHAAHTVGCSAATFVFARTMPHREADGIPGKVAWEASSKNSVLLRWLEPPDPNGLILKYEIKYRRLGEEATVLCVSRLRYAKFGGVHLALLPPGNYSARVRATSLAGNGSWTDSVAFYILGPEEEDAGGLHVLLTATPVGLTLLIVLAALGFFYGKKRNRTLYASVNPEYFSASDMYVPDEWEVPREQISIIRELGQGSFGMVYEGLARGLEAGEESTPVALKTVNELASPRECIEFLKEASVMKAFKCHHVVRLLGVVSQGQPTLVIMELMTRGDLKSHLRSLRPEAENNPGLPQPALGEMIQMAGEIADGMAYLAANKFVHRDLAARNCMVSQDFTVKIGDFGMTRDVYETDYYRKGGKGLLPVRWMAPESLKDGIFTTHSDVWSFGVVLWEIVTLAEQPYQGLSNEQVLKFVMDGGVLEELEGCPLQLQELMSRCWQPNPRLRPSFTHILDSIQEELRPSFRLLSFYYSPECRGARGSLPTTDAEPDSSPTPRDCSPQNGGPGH
UniProt Q9Y616: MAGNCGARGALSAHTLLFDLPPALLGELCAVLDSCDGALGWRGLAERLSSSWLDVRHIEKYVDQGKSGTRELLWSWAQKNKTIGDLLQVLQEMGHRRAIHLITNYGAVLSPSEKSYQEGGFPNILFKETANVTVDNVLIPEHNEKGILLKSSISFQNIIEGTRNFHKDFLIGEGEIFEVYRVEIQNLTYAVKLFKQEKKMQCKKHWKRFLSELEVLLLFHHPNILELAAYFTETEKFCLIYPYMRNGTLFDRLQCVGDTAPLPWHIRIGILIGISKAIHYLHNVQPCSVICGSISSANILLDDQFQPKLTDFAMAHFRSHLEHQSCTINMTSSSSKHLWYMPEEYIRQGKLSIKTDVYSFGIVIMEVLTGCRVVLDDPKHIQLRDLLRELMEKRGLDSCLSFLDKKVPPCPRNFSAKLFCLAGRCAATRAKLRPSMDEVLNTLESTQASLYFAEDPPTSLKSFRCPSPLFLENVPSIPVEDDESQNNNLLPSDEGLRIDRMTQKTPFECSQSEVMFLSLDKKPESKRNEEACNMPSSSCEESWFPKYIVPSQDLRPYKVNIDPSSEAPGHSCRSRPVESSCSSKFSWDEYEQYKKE
UniProt P23458: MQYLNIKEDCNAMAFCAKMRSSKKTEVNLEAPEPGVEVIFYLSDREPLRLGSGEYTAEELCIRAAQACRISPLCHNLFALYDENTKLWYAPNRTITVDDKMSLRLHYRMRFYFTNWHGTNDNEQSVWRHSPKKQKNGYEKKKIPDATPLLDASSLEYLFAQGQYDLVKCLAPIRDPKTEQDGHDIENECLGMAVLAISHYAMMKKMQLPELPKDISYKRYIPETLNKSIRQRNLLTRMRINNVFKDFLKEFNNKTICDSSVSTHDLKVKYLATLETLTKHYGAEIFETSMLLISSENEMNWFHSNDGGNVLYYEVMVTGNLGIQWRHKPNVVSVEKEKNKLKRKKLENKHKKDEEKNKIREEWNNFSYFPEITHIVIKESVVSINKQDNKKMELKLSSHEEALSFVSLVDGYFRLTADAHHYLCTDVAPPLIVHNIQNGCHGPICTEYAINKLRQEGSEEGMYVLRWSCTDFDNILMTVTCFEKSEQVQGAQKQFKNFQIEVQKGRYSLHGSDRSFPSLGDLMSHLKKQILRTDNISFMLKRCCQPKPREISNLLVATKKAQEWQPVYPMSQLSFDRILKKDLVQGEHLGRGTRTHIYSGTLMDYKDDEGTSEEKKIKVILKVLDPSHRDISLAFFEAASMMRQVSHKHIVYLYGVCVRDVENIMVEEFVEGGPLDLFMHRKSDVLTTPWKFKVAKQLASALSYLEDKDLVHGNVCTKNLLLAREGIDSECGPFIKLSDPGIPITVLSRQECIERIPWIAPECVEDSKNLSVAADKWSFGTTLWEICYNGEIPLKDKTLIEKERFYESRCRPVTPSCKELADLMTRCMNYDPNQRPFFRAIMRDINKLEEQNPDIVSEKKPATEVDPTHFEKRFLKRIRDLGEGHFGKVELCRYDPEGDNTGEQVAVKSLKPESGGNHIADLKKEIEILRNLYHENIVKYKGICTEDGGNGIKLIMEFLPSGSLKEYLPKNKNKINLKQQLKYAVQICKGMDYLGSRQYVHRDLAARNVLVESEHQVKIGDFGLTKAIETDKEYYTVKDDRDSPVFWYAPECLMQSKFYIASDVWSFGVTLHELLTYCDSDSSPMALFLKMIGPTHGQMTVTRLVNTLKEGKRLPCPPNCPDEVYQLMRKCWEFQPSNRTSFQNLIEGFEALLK
UniProt P53667: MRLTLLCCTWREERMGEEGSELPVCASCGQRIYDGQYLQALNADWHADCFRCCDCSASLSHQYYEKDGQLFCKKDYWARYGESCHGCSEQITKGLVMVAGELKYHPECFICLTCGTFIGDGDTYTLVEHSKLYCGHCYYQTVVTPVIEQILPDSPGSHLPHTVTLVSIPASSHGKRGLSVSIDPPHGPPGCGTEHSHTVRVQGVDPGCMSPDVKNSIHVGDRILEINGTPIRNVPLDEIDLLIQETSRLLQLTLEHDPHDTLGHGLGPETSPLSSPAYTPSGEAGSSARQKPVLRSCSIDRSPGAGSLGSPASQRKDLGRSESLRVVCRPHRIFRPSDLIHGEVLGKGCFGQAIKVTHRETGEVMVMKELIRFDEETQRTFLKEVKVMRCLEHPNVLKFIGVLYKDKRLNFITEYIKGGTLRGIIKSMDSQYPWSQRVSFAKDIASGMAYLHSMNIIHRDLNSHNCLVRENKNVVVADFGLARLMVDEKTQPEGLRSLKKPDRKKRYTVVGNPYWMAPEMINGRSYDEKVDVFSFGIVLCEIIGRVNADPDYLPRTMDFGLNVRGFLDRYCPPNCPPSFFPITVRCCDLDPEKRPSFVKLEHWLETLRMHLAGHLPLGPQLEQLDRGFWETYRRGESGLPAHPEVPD
UniProt P53671: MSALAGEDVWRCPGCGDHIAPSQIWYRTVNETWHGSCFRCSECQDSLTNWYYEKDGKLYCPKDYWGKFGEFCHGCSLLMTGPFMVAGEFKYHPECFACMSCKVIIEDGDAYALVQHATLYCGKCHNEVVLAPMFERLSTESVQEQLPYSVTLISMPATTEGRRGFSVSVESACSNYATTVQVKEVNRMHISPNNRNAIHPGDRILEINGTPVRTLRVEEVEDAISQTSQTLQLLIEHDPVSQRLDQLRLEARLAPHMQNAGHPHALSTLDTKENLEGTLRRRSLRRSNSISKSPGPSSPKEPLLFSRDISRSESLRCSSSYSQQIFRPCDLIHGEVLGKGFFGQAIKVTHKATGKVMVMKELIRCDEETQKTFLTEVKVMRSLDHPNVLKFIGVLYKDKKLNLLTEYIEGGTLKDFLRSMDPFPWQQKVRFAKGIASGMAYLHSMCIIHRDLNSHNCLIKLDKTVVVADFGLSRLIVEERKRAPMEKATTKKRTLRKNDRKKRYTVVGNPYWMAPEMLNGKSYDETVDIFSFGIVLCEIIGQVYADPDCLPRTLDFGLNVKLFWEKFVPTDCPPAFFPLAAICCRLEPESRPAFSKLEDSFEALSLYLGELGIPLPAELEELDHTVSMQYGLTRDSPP

Key:
Assay in all cases: kinase-Nluc reporter destabilization hit call (1 = scored as downregulated) (binary); higher = compound decreases kinase abundance
Details in all cases: K562; 2-18 h
ERN1 = ERN1 (UniProt O75460)
FGFR1 = FGFR1 (UniProt P11362)
FGFR2 = FGFR2 (UniProt P21802)
FGFR3 = FGFR3 (UniProt P22607)
FGR = FGR (UniProt P09769)
FLT3 = FLT3 (UniProt P36888)
FYN = FYN (UniProt P06241)
GSK3A = GSK3A (UniProt P49840)
HER2 = HER2 (UniProt P04626)
INSRR = INSRR (UniProt P14616)
IRAK3 = IRAK3 (UniProt Q9Y616)
JAK1 = JAK1 (UniProt P23458)
LCK = LCK (UniProt P06239)
LIMK1 = LIMK1 (UniProt P53667)
LIMK2 = LIMK2 (UniProt P53671)
LMTK2 = LMTK2 (UniProt Q8IWU2)
LYN = LYN (UniProt P07948)
MAP2K1 = MAP2K1 (UniProt Q02750)
MAP2K2 = MAP2K2 (UniProt P36507)
MAP4K2 = MAP4K2 (UniProt Q12851)

Measured: kinase-Nluc reporter destabilization hit call

Cn1nc(C(C)(C)C)cc1NC(=O)Nc1ccc(Oc2ccncc2)cc1 (10 µM)
inactive: ERN1 = 0 | FGFR1 = 0 | FGFR2 = 0 | FGFR3 = 0 | FGR 0 | FLT3 = 0 | FYN 0 | GSK3A 0 | HER2 = 0 | INSRR 0 | IRAK3 = 0 | JAK1 = 0 | LCK 0 | LIMK1 = 0 | LIMK2 = 0 | LMTK2 = 0 | LYN 0 | MAP2K1 = 0 | MAP2K2 = 0 | MAP4K2 = 0

O=C1c2ccccc2-c2n[nH]c3cccc1c23 (10 µM)
inactive: ERN1 = 0 | FGFR1 = 0 | FGFR2 = 0 | FGFR3 = 0 | FGR 0 | FLT3 = 0 | FYN 0 | GSK3A 0 | HER2 = 0 | INSRR 0 | IRAK3 = 0 | JAK1 = 0 | LCK 0 | LIMK1 = 0 | LIMK2 = 0 | LMTK2 = 0 | LYN 0 | MAP2K1 = 0 | MAP2K2 = 0 | MAP4K2 = 0

O=C1Cc2c([nH]c3ccc(Br)cc23)-c2ncccc2N1 [1-Azakenpaullone] (10 µM)
inactive: ERN1 = 0 | FGFR1 = 0 | FGFR2 = 0 | FGFR3 = 0 | FGR 0 | FLT3 = 0 | FYN 0 | GSK3A 0 | HER2 = 0 | INSRR 0 | IRAK3 = 0 | JAK1 = 0 | LCK 0 | LIMK1 = 0 | LIMK2 = 0 | LMTK2 = 0 | LYN 0 | MAP2K1 = 0 | MAP2K2 = 0 | MAP4K2 = 0

C[C@H](CN(C)C)Oc1nc(Nc2cc3cccc(Cl)c3cn2)cnc1C#N (10 µM)
inactive: ERN1 = 0 | FGFR1 = 0 | FGFR2 = 0 | FGFR3 = 0 | FGR 0 | FLT3 = 0 | FYN 0 | GSK3A 0 | HER2 = 0 | INSRR 0 | IRAK3 = 0 | JAK1 = 0 | LCK 0 | LIMK1 = 0 | LIMK2 = 0 | LMTK2 = 0 | LYN 0 | MAP2K1 = 0 | MAP2K2 = 0 | MAP4K2 = 0

CCCS(=O)(=O)Nc1ccc(F)c(C(=O)c2c[nH]c3ncc(Cl)cc23)c1F (10 µM)
inactive: ERN1 = 0 | FGFR1 = 0 | FGFR2 = 0 | FGFR3 = 0 | FGR 0 | FLT3 = 0 | FYN 0 | GSK3A 0 | HER2 = 0 | INSRR 0 | IRAK3 = 0 | JAK1 = 0 | LCK 0 | LIMK1 = 0 | LIMK2 = 0 | LMTK2 = 0 | LYN 0 | MAP2K1 = 0 | MAP2K2 = 0 | MAP4K2 = 0

Cc1ccc(NC(=O)Nc2nnc(Sc3ncnc4cc(OCCCN5CCOCC5)ccc34)s2)cc1 (10 µM)
inactive: ERN1 = 0 | FGFR1 = 0 | FGFR2 = 0 | FGFR3 = 0 | FGR 0 | FLT3 = 0 | FYN 0 | GSK3A 0 | HER2 = 0 | INSRR 0 | IRAK3 = 0 | JAK1 = 0 | LCK 0 | LIMK1 = 0 | LIMK2 = 0 | LMTK2 = 0 | LYN 0 | MAP2K1 = 0 | MAP2K2 = 0 | MAP4K2 = 0

O=c1c(-c2ccc(O)cc2)coc2cc(O)cc(O)c12 [Genistein] (10 µM)
inactive: ERN1 = 0 | FGFR1 = 0 | FGFR2 = 0 | FGFR3 = 0 | FGR 0 | FLT3 = 0 | FYN 0 | GSK3A 0 | HER2 = 0 | INSRR 0 | IRAK3 = 0 | JAK1 = 0 | LCK 0 | LIMK1 = 0 | LIMK2 = 0 | LMTK2 = 0 | LYN 0 | MAP2K1 = 0 | MAP2K2 = 0 | MAP4K2 = 0

COC(=O)c1ccc2c(C(=Nc3ccc(N(C)C(=O)CN4CCN(C)CC4)cc3)c3ccccc3)c(O)[nH]c2c1 [Nintedanib] (2.5 µM)
inactive: ERN1 = 0 | FGFR1 = 0 | FGFR2 = 0 | FGFR3 = 0 | FGR 0 | FLT3 = 0 | FYN 0 | GSK3A 0 | HER2 = 0 | INSRR 0 | IRAK3 = 0 | JAK1 = 0 | LCK 0 | LIMK1 = 0 | LIMK2 = 0 | LMTK2 = 0 | LYN 0 | MAP2K1 = 0 | MAP2K2 = 0 | MAP4K2 = 0

COc1ccc(NC(=O)N2CCN(c3nc(N)nc4c3cnn4C)[C@@H](C)C2)c(C)c1 (10 µM)
inactive: ERN1 = 0 | FGFR1 = 0 | FGFR2 = 0 | FGFR3 = 0 | FGR 0 | FLT3 = 0 | FYN 0 | GSK3A 0 | HER2 = 0 | INSRR 0 | IRAK3 = 0 | JAK1 = 0 | LCK 0 | LIMK1 = 0 | LIMK2 = 0 | LMTK2 = 0 | LYN 0 | MAP2K1 = 0 | MAP2K2 = 0 | MAP4K2 = 0

CCCn1cnc2c(NCc3ccccc3)nc(NC(CC)CO)nc21 (stereo not given) [Ca2+ channel agonist 1] (2.5 µM)
inactive: ERN1 = 0 | FGFR1 = 0 | FGFR2 = 0 | FGFR3 = 0 | FGR 0 | FLT3 = 0 | FYN 0 | GSK3A 0 | HER2 = 0 | INSRR 0 | IRAK3 = 0 | JAK1 = 0 | LCK 0 | LIMK1 = 0 | LIMK2 = 0 | LMTK2 = 0 | LYN 0 | MAP2K1 = 0 | MAP2K2 = 0 | MAP4K2 = 0

COc1cc2ncnc(Nc3ccc(O)cc3)c2cc1OC (10 µM)
inactive: ERN1 = 0 | FGFR1 = 0 | FGFR2 = 0 | FGFR3 = 0 | FGR 0 | FLT3 = 0 | FYN 0 | GSK3A 0 | HER2 = 0 | INSRR 0 | IRAK3 = 0 | JAK1 = 0 | LCK 0 | LIMK1 = 0 | LIMK2 = 0 | LMTK2 = 0 | LYN 0 | MAP2K1 = 0 | MAP2K2 = 0 | MAP4K2 = 0

CC(C)c1ccc2oc3nc(N)c(C(=O)O)cc3c(=O)c2c1 [Amlexanox] (10 µM)
inactive: ERN1 = 0 | FGFR1 = 0 | FGFR2 = 0 | FGFR3 = 0 | FGR 0 | FLT3 = 0 | FYN 0 | GSK3A 0 | HER2 = 0 | INSRR 0 | IRAK3 = 0 | JAK1 = 0 | LCK 0 | LIMK1 = 0 | LIMK2 = 0 | LMTK2 = 0 | LYN 0 | MAP2K1 = 0 | MAP2K2 = 0 | MAP4K2 = 0

COc1cc2ncn(-c3cc(OCc4ccccc4C(F)(F)F)c(C(N)=O)s3)c2cc1OC (10 µM)
inactive: ERN1 = 0 | FGFR1 = 0 | FGFR2 = 0 | FGFR3 = 0 | FGR 0 | FLT3 = 0 | FYN 0 | GSK3A 0 | HER2 = 0 | INSRR 0 | IRAK3 = 0 | JAK1 = 0 | LCK 0 | LIMK1 = 0 | LIMK2 = 0 | LMTK2 = 0 | LYN 0 | MAP2K1 = 0 | MAP2K2 = 0 | MAP4K2 = 0

COc1cc(C=C(C#N)C(N)=O)cc(CSc2nc3ccccc3s2)c1O (10 µM)
inactive: ERN1 = 0 | FGFR1 = 0 | FGFR2 = 0 | FGFR3 = 0 | FGR 0 | FLT3 = 0 | FYN 0 | GSK3A 0 | HER2 = 0 | INSRR 0 | IRAK3 = 0 | JAK1 = 0 | LCK 0 | LIMK1 = 0 | LIMK2 = 0 | LMTK2 = 0 | LYN 0 | MAP2K1 = 0 | MAP2K2 = 0 | MAP4K2 = 0

O=c1c(O)c(-c2ccc(O)c(O)c2)oc2cc(O)cc(O)c12 [Quercetin (dihydrate)] (10 µM)
inactive: ERN1 = 0 | FGFR1 = 0 | FGFR2 = 0 | FGFR3 = 0 | FGR 0 | FLT3 = 0 | FYN 0 | GSK3A 0 | HER2 = 0 | INSRR 0 | IRAK3 = 0 | JAK1 = 0 | LCK 0 | LIMK1 = 0 | LIMK2 = 0 | LMTK2 = 0 | LYN 0 | MAP2K1 = 0 | MAP2K2 = 0 | MAP4K2 = 0

Ordered by number of heavy atoms (low to high): some entries from above.
CC(C)c1ccc2oc3nc(N)c(C(=O)O)cc3c(=O)c2c1 [Amlexanox] (10 µM)
inactive: ERN1 = 0 | FGFR1 = 0 | FGFR2 = 0 | FGFR3 = 0 | FGR 0 | FLT3 = 0 | FYN 0 | GSK3A 0 | HER2 = 0 | INSRR 0 | IRAK3 = 0 | JAK1 = 0 | LCK 0 | LIMK1 = 0 | LIMK2 = 0 | LMTK2 = 0 | LYN 0 | MAP2K1 = 0 | MAP2K2 = 0 | MAP4K2 = 0

COc1cc(C=C(C#N)C(N)=O)cc(CSc2nc3ccccc3s2)c1O (10 µM)
inactive: ERN1 = 0 | FGFR1 = 0 | FGFR2 = 0 | FGFR3 = 0 | FGR 0 | FLT3 = 0 | FYN 0 | GSK3A 0 | HER2 = 0 | INSRR 0 | IRAK3 = 0 | JAK1 = 0 | LCK 0 | LIMK1 = 0 | LIMK2 = 0 | LMTK2 = 0 | LYN 0 | MAP2K1 = 0 | MAP2K2 = 0 | MAP4K2 = 0

COc1cc2ncn(-c3cc(OCc4ccccc4C(F)(F)F)c(C(N)=O)s3)c2cc1OC (10 µM)
inactive: ERN1 = 0 | FGFR1 = 0 | FGFR2 = 0 | FGFR3 = 0 | FGR 0 | FLT3 = 0 | FYN 0 | GSK3A 0 | HER2 = 0 | INSRR 0 | IRAK3 = 0 | JAK1 = 0 | LCK 0 | LIMK1 = 0 | LIMK2 = 0 | LMTK2 = 0 | LYN 0 | MAP2K1 = 0 | MAP2K2 = 0 | MAP4K2 = 0

Following part:

C=CC(=O)Nc1ccc2ncnc(Nc3cccc(Br)c3)c2c1 (10 µM)
inactive: ERN1 = 0 | FGFR1 = 0 | FGFR2 = 0 | FGFR3 = 0 | FGR 0 | FLT3 = 0 | FYN 0 | GSK3A 0 | HER2 = 0 | INSRR 0 | IRAK3 = 0 | JAK1 = 0 | LCK 0 | LIMK1 = 0 | LIMK2 = 0 | LMTK2 = 0 | LYN 0 | MAP2K1 = 0 | MAP2K2 = 0 | MAP4K2 = 0

COc1ccc(C=C(C#N)c2cccnc2)cc1OC (10 µM)
inactive: ERN1 = 0 | FGFR1 = 0 | FGFR2 = 0 | FGFR3 = 0 | FGR 0 | FLT3 = 0 | FYN 0 | GSK3A 0 | HER2 = 0 | INSRR 0 | IRAK3 = 0 | JAK1 = 0 | LCK 0 | LIMK1 = 0 | LIMK2 = 0 | LMTK2 = 0 | LYN 0 | MAP2K1 = 0 | MAP2K2 = 0 | MAP4K2 = 0

CNc1nc(-c2ccc3c(N)n[nH]c3c2)cc(N2C[C@@H](C(=O)NC3CCCCC3)CC[C@H]2C)n1 (10 µM)
inactive: ERN1 = 0 | FGFR1 = 0 | FGFR2 = 0 | FGFR3 = 0 | FGR 0 | FLT3 = 0 | FYN 0 | GSK3A 0 | HER2 = 0 | INSRR 0 | IRAK3 = 0 | JAK1 = 0 | LCK 0 | LIMK1 = 0 | LIMK2 = 0 | LMTK2 = 0 | LYN 0 | MAP2K1 = 0 | MAP2K2 = 0 | MAP4K2 = 0
